Substitutions are numbered along the chain they refer to. No constants are given. Whether binding was seen depends on the method and setting. Some entries that bind do so weakly or less than the wild type.
B1: mouse monoclonal antibody 3E8 (antibody, V domains shown)
VH: DVKLVESGGGLVKLGGSLKLSCAASGFTFSSYYMSWVRQTPEKRLELVATINSNGGSTYYPDTVKGRITISRDNAKNTLQLQMSSLRSEDTALYYCVRQNYEGAYWGQGTLVTVSA
VL: DVLMTQTPLSLPVTLGDQASISCRSSQSIVHSNGNTYLEWYLQKPGQSPKLLIYKVSNRFSGVPDRFSGSGSGTDFTLKISRVEAEDLGVYYCFQSSHVPWTFGGGTKLEIK
notes: Mouse hybridoma antibody; also called Mouse 3E8
B2: mouse monoclonal antibody 3F11 (antibody, V domains shown)
VH: B1 VH with G10D, T50V, S53T, I68F, Q80Y, R87K
VL: B1 VL with T14S
B3: rabbit monoclonal antibody 14 (14H1-14K2) (antibody, V domains shown)
VH: QEQLEESGGDLVKPEGSLTLTCTASGFSFSSNYVMCWVRQAPGKGLEWVACIWFAGIVDTTYYATWAKGRFTISKTSSTTVTLQMTSLTAADTATYFCARNPVGSVNLWGQGTLVTVS
VL: VMTQTPSSKSVPVGGSVTINCQASESVYSNNRLSWYQQKPGQPPKLLIYYASTLESGVPSRFKGSGFGTHFTLTISGAQCDDAATYYCAGWRGARTDGVDFGGGTEVVVK
notes: Recombinant; also called Rabbit 14; clone 14
B4: rabbit monoclonal antibody 38 (38H1-38K1) (antibody, V domains shown)
VH: QSVEESGGRLVTPGTPLTLTCTVSGFSFSAYYMTWVRQAPGKGLEFIGVTIPIGRTYYASWAKGRFTISKTSTTVHLKITSPTTEDTAAYFCAGGPTGNSHFTLWGQGTLVTVS
VL: VMTQTPSSKSVPVGDTVTINCQASESVYNNNQLSWYQQKPGQPPKLLIYQASKLESGVPSRFKGSGSGTQFTLTISDVVCDDAATYYCAGYKSPTTDGIAFGGGTEVVVK
notes: Recombinant; also called clone 38
B5: mouse monoclonal antibody 2F7 (antibody, V domains shown)
VH: B1 VH
VL: B1 VL
notes: Mouse hybridoma antibody; also called Mouse 2F7
B6: rabbit monoclonal antibody 1 (1H3-1K3) (antibody, V domains shown)
VH: B4 VH with F28L, A30R, F46Y, T50I, I53G, R55T, H76D, K78R, A89T
VL: B4 VL with D15G, Q32H, P40S, Q50E, S60P, A89S, S93R, P94V
notes: Recombinant; also called Rabbit 1; clone 1
B7: rabbit monoclonal antibody 17 (17H3-17K3) (antibody, V domains shown)
VH: QEQLVESGGGLVQPGASLTLTCTASGFSFSSSYVMCWVRQAPGKGLEWITCSDTGINTWYASWAKGRFTISKTSSTTVTLQMTSLTAADTATYFCARRYTGDTYLGNFNLWGQGTLVTVS
VL: AQVLTQTPASVSAAVGGTVTINCQASQSVYKNNYLSWYQQKPGQPPKLLIYKASTLASGVPSRFKGSGSGTQFTLTISDVQCDDAATYYCAGGWRSLNAFGGGTEVVVK
notes: Recombinant; also called Rabbit 17; clone 17

By UniProt entry, the sequences of proteins in these tests, tags left out. Where a name states a change or a piece, a line headed by the entry shows the natural chain unless it says otherwise.
UniProt P02769: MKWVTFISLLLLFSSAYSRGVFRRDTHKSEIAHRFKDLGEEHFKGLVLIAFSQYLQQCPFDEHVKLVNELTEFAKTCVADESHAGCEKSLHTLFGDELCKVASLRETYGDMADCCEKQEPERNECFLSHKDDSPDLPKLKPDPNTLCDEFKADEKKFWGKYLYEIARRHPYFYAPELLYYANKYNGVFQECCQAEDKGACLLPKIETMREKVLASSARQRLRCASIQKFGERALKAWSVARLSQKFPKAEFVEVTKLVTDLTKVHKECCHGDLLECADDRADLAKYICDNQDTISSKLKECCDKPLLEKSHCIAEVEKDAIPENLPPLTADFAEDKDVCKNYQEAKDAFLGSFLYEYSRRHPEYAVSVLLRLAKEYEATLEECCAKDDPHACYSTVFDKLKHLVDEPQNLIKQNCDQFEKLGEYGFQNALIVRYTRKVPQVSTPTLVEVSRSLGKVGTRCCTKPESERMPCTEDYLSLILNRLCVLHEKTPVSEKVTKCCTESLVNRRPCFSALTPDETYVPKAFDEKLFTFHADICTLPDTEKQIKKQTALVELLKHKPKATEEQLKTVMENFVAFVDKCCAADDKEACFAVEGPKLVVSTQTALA

Biological target: HA-tagged Human TDP-43 with a triple missense tandem mutation in the nuclear localization signal (ΔNLS-TDP-43) (human) (UniProt Q13148)
Assay: summary table; column: Binding to ΔNLS TDP-43 cytoplasmic aggregates

binding, binds:
B1
B2
B3
B4
B5

Biological target: HA-tagged Human TDP-43 with a triple missense tandem mutation in the nuclear localization signal (ΔNLS-TDP-43) (human) (UniProt Q13148)
Assay: immunocytochemistry, legend of FIG. 6

binding, binds:
B5

Biological target: HA-tagged Human TDP-43 with a triple missense tandem mutation in the nuclear localization signal (ΔNLS-TDP-43) (human) (UniProt Q13148)
Assay: immunocytochemistry, transfected HEK293FT cells, antibody at 10 ug/ml

binding, binds:
B5

Biological target: HA-tagged Human TDP-43 with a triple missense tandem mutation in the nuclear localization signal (ΔNLS-TDP-43) (human) (UniProt Q13148)
Assay: immunocytochemistry, transfected HEK293FT cells, 10 ug/ml; column: Binding to ΔNLS TDP-43 cytoplasmic aggregates

binding, binds:
B1
B2
B3
B4
B5

Biological target: DAGWGNLc (SEQ ID NO: 9) peptide conjugated to bovine serum albumin (human; bovine) (UniProt P02769)
Assay: SPR, peptide-BSA immobilized

binding, binds:
B1
B3
B5
B6
B7

Source: patent US20220056118A1 (UNIVERSITY OF BRITISH COLUMBIA, published 2022)
